Patent US20120121610A1, “THERAPEUTIC AGENT AND ASSAY” (priority 2009, published 2012)
Results are given in words; binding and its absence hold for the method and conditions named. In cells and extracts the contact can be indirect. Some entries that bind do so weakly or less than the wild type.

By UniProt entry, the sequences of proteins in these tests, tags left out.
UniProt Q9HAW4: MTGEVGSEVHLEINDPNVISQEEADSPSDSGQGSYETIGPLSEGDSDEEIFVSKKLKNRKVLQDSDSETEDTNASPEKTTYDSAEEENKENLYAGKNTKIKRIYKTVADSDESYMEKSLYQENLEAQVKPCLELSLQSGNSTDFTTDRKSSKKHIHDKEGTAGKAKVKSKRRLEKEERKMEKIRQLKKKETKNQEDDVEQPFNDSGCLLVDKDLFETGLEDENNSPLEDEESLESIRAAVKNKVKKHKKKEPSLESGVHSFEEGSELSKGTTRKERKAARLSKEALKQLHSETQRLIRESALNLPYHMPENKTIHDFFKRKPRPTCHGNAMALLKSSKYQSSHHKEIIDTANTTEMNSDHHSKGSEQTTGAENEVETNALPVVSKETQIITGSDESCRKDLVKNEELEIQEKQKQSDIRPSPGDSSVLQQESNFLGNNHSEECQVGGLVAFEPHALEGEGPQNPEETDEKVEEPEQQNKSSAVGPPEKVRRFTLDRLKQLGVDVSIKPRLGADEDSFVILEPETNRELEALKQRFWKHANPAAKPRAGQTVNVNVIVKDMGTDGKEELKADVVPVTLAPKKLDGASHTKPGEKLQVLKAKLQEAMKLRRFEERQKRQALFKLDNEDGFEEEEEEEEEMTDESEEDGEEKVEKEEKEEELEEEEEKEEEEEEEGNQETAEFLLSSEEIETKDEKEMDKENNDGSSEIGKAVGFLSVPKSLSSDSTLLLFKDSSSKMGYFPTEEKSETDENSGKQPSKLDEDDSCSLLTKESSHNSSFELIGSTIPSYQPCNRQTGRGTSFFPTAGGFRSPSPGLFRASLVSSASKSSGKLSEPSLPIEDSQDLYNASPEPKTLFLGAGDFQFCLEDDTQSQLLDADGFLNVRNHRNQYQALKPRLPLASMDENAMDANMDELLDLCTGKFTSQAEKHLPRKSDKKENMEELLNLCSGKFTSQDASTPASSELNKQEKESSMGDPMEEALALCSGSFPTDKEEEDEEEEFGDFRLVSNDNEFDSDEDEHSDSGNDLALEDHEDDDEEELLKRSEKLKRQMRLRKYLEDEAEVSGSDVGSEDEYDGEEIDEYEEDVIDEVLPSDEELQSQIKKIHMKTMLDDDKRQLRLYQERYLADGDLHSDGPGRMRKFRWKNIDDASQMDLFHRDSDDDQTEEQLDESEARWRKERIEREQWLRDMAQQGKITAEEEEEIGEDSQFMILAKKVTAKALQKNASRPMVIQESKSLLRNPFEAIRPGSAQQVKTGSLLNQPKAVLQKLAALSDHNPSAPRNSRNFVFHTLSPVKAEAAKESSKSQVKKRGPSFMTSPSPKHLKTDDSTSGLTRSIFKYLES

Columns and labels:
[1] = molecular target: T1, Chk1 (serine/threonine protein kinase Chk1) (UniProt O14757); experiment: co-immunoprecipitation of endogenous proteins with anti-Chk1 antibody from asynchronous or HU-treated HeLa cells, immunoblot
T1 sequence (looked up): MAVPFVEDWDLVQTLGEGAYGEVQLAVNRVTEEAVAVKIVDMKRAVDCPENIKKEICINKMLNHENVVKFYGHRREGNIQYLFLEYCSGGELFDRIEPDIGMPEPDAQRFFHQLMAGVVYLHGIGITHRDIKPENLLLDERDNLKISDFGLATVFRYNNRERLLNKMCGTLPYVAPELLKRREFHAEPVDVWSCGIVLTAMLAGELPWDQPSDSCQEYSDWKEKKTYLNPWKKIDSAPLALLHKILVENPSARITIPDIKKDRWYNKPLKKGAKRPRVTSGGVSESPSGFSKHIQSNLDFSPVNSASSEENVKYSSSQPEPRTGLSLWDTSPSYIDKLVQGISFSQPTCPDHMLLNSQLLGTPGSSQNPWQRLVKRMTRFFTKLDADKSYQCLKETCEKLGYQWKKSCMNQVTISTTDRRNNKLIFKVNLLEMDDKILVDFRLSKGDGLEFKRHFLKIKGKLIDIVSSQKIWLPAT

[2] = molecular target: T1, Chk1 (serine/threonine protein kinase Chk1); experiment: co-immunoprecipitation with anti-Chk1 antibodies from HeLa cells treated with 2 mM HU for 24 h, immunoblot (FIG. 2 legend)
[3] = molecular target: T1, Chk1 (serine/threonine protein kinase Chk1); experiment: summary of the co-immunoprecipitation data (together with previously published work)

binding [1]: binds
binding [2]: binds
binding [3]: binds
Substance: Claspin (from UniProt Q9HAW4 1-1339)
